The values that follow come from article PMC7059380, “In vivo visualization of the i-motif DNA secondary structure in the Bombyx mori testis”.

The target in this data set is T1, BmILF (Bombyx mori) (UniProt A0A1U9WZ16).
T1 sequence (looked up, limits assumed): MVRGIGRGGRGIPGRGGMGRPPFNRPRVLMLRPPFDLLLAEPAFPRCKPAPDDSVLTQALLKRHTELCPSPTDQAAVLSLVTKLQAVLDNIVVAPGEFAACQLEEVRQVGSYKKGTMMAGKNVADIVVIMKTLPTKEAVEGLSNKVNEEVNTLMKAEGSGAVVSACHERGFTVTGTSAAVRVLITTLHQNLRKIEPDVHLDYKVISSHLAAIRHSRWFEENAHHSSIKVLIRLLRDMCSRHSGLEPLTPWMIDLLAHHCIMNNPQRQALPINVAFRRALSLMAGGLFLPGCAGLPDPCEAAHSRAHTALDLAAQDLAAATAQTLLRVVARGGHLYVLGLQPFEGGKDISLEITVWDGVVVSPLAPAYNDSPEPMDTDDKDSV
The data set can be described thus: EMSA. To be noted: EMSA: 20 ul, 2.5% glycerol, 0.05% NP-40, 5 mM MgCl2, 4 mM EDTA, RT 20 min; probes folded in 50 mM Tris-TAE pH 4.0 (also 6.0, 8.0); recombinant protein; label: 5' biotin. A general note: Mobility shift assays separate free from complexed probe on a gel.

For at least one entry, the source does not settle the construct or the ends of the probe. Negatives hold for the conditions tested. Protein sequences can lack the tags named with them.

For “CCCCGCGCCCCCCGCGTCCCCCGCACCCCC (double strand) [BGIBMGA003213 dsDNA]”, the binding result was “no binding”.

With “TTGTTGCCCCGCCCCTCGGCCCCCTCGCGCCCCGCACTGG (double strand) [BmPOUM2 dsDNA]”, the binding result is on record as “no binding”.
